Assay results published in article PMC7819943, “Rice protein-binding microarrays: a tool to detect cis-acting elements near promoter regions in rice”.
The list shows a part of the results.

The chains behind the UniProt entries cited, without tags or fusion partners.
UniProt Q0JBA9, entry or part of it: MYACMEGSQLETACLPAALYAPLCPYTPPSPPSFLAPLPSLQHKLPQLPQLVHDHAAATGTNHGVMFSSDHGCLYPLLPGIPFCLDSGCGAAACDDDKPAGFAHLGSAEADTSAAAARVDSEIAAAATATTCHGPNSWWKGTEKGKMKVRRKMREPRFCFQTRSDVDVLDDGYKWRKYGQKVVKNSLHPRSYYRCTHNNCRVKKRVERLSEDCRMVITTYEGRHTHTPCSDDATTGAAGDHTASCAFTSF

These sequences were tested against OsWRKY34 (Oryza sativa, UniProt Q0JBA9 1-250) (assay: protein-binding microarray (RPBM); PBS, 2% BSA, 51.3 ng/ul salmon testes DNA, 50 uM zinc acetate, 200 nM TF, 25 C, 1 h; high values mean tight binding). Conditions: protein: recombinant; tags: N-terminal polyhistidine and DsRed monomer fusion (pET32a); label: CyDye5-dUTP incorporated in the synthesized complementary strand; 3' TTTTT single-stranded linker to array surface; dsDNA, one strand shown.
In short: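 A custom Agilent array was converted to double-stranded form by primer extension with Cy5-dUTP and blocked with 2% BSA. Protein at 200 nM in PBS with 2% BSA, salmon testes DNA and 50 µM zinc acetate was applied for 1 h at 25 °C, followed by washing. The proteins were polyhistidine–DsRed N-terminal fusions of transcription factors, expressed in E. coli BL21-CodonPlus and Ni–NTA-purified. The binding signal is per-feature fluorescence intensity (arbitrary units) from an Axon 4000B scanner.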

Sequence	binding signal
ACCCAGTGACGTGGCCCTCATAACCTTCGCCCATAAATACCGGAGTCACCTAGTGCAG	8400 fluorescence intensity (a.u.)
CTCTATAGCTGTTGTTAGAGTTGTTATTCCTTTCACTTGTCGGAGTCACCTAGTGCAG	8130 fluorescence intensity (a.u.)
CTGTTCCATTTTATCACTTCTTTCTGCACTTCTTTTCTTTCGGAGTCACCTAGTGCAG	15800 fluorescence intensity (a.u.)
TGTAGTCCGCTTCTTTTCTCTCCTTATTTATCTTCTTAAACGGAGTCACCTAGTGCAG	8580 fluorescence intensity (a.u.)
GGTGGGGTTCGGTTTCGTGCCGCCATTTTCCCCAATTTGGCGGAGTCACCTAGTGCAG	8870 fluorescence intensity (a.u.)
AGAGGGAGTATTATGTTTATGCTTTTAATTTTTCACTTTGCGGAGTCACCTAGTGCAG	9150 fluorescence intensity (a.u.)
CTACGTTTCTGCTTCCTTCAGTTTGTGCTGTCGTATTTATCGGAGTCACCTAGTGCAG	12800 fluorescence intensity (a.u.)
GTATGTCTATCTTCTTTCGTTTTTTGACATTTACATATTTCGGAGTCACCTAGTGCAG	11800 fluorescence intensity (a.u.)
GGCACGGTTTGAACGCATTACCCATTCCCCGTTTGACTTCCGGAGTCACCTAGTGCAG	12800 fluorescence intensity (a.u.)
GGACGGACGAAACAGCGTGACATTACATTTTTTTCTCTCTCGGAGTCACCTAGTGCAG	8100 fluorescence intensity (a.u.)
ATGAAACTTGTTTGGTGTAGTAGATGTTGCTAAATTTTTCCGGAGTCACCTAGTGCAG	8630 fluorescence intensity (a.u.)
AGAAACGTACTCACTCTTGCCTGCATCGATCCTTGAGTTTCGGAGTCACCTAGTGCAG	9930 fluorescence intensity (a.u.)
TTCTCATACCTTTTTCAATCTACTCCCTCTGGCTACATAACGGAGTCACCTAGTGCAG	8380 fluorescence intensity (a.u.)
TTCCTACGATTTTCTAATTTTTCCCATATATTTCTCATATCGGAGTCACCTAGTGCAG	8250 fluorescence intensity (a.u.)
GCGCACAAACAAAGCCGAATTAACACTCACGCTAAAACGTCGGAGTCACCTAGTGCAG	11000 fluorescence intensity (a.u.)
CCCGTTGGCGATTGCGATGCTCCAAGTTGGTTACAATGTACGGAGTCACCTAGTGCAG	8090 fluorescence intensity (a.u.)
CCACCGGCGGGCCCCACCATCTTGACTCCTCTCTGTGATCCGGAGTCACCTAGTGCAG	8610 fluorescence intensity (a.u.)
ACCCACCATGCCACCCCACTCCTTCTTTAAACTTGTAAACCGGAGTCACCTAGTGCAG	9480 fluorescence intensity (a.u.)
GATTATACTGTATTTAATTGCGAGGAATGGTCTCTTTCAACGGAGTCACCTAGTGCAG	10500 fluorescence intensity (a.u.)
GCGAGGATTCTTCGCCGACTGCTTCGTGTCATCTCGTCTCCGGAGTCACCTAGTGCAG	9770 fluorescence intensity (a.u.)
TCGTGCGGCCATTGGCCCCTCTTCCATTCCTGCTATTCTCCGGAGTCACCTAGTGCAG	9630 fluorescence intensity (a.u.)

Already shown: an excerpt of the list.
Sequence	binding signal
GGTGGGGTTCGGTTTCGTGCCGCCATTTTCCCCAATTTGGCGGAGTCACCTAGTGCAG	8870 fluorescence intensity (a.u.)
AGAGGGAGTATTATGTTTATGCTTTTAATTTTTCACTTTGCGGAGTCACCTAGTGCAG	9150 fluorescence intensity (a.u.)
CTACGTTTCTGCTTCCTTCAGTTTGTGCTGTCGTATTTATCGGAGTCACCTAGTGCAG	12800 fluorescence intensity (a.u.)

Later entries.

Sequence	binding signal
CTTCGTTTTGTCAATCGCAATATTATTGCGTTCTCTTGTCCGGAGTCACCTAGTGCAG	8300 fluorescence intensity (a.u.)
AAATTTAATTAATTATGTGTTAAACACTGCTTCGTTTTATCGGAGTCACCTAGTGCAG	8460 fluorescence intensity (a.u.)
TGTGGGTTGGAGCGGGTGGCCTCTAGGGTTTAGTGCAGTACGGAGTCACCTAGTGCAG	10200 fluorescence intensity (a.u.)
CTCACATGTATGCACACTGTGATTTTTTTCCTTCCTCACTCGGAGTCACCTAGTGCAG	8700 fluorescence intensity (a.u.)
CCAACAACAGTGGCCTAAATTGCATTTCATAATTATTTTACGGAGTCACCTAGTGCAG	8860 fluorescence intensity (a.u.)
GAAACTGTCATTCTCTTATAAGGTGCGCTAAAATTTAAATCGGAGTCACCTAGTGCAG	8820 fluorescence intensity (a.u.)
GGTGTTGTGGATGTTCACCAGCTTTGGAGGGTTTGATTAGCGGAGTCACCTAGTGCAG	8360 fluorescence intensity (a.u.)
CTGGAACTCGCATACTTTCAGCTCATTGGTATAAAATTTCCGGAGTCACCTAGTGCAG	10400 fluorescence intensity (a.u.)
ACGCGCAGCCACGAAGCATGGCCATCCACGATAACGTACCCGGAGTCACCTAGTGCAG	8320 fluorescence intensity (a.u.)
GTTGACCGTTGACCTTTTTGTGGGTCAACTCAATCAAGACCGGAGTCACCTAGTGCAG	16600 fluorescence intensity (a.u.)
CCCTAATATCACTCGACTACATTTTCATCCTCTTAGAATTCGGAGTCACCTAGTGCAG	8450 fluorescence intensity (a.u.)
ATTTTTTTTATATTTGAATGGTATGCTCCATTGTTTTTTACGGAGTCACCTAGTGCAG	11000 fluorescence intensity (a.u.)
CCGTTCGCTATCTCTTCTTCTCCTCTTCTCTCCCCTTCTCCGGAGTCACCTAGTGCAG	10000 fluorescence intensity (a.u.)
TTATGTTTATATTATTGGGTAAAGGGAGTAGTGGGTATCACGGAGTCACCTAGTGCAG	8510 fluorescence intensity (a.u.)
ACGTTCTTGGCTGCATCCATCCCTTCGTCACTAAGGCAATCGGAGTCACCTAGTGCAG	12200 fluorescence intensity (a.u.)
GACCTACGTCACCACCTTGCATGTCCCACGCGGAGCTCCACGGAGTCACCTAGTGCAG	9230 fluorescence intensity (a.u.)
TGGTTCCATGTCCTTATTTCAGTAGACCACGCTACTACGACGGAGTCACCTAGTGCAG	8970 fluorescence intensity (a.u.)
ACTCCATCACCACCACCCCACCTATATATCTCGCGGCCTCCGGAGTCACCTAGTGCAG	10400 fluorescence intensity (a.u.)
CCATTCGTGTCCGAAAACCCCTTTCGACATTCGGTCAAATCGGAGTCACCTAGTGCAG	8430 fluorescence intensity (a.u.)
ACAAGTAGCCTCTATATGTTTGTGCCTAGATAGCGTCGTCCGGAGTCACCTAGTGCAG	8630 fluorescence intensity (a.u.)
AATGGGAGGATGATGCTTAATGTTGACCAACTTTTCAAGCCGGAGTCACCTAGTGCAG	8190 fluorescence intensity (a.u.)
